Source: ChEMBL document CHEMBL3988442, “University of Dundee, Small-Polar-MMV Screening Library” (2021).

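Phenotypic screen: M. tuberculosis growth, glucose 7H9 medium, 3 days; the read-out is not stated. Compounds at 50 µM. The record gives no direction; compounds that gave an IC50 in retests scored well above the rest, so higher reads as more growth inhibition. Of about 69,000 compounds tested this way, about 760 (1.1%) reached 50% or more in at least one test.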

Results are given as percent effect.
How 0% and 100% were set is not recorded. Most values in the screen are low, and negative values occur.
This is an unselected part of the compounds tested.
Two or more numbers in one place are separate tests of the same structure; such repeats can differ widely.

- Cc1noc(OCc2ccc(C#N)cc2)n1 | 12.33%
- CCc1n[nH]c(C2CN(C(=O)c3cscn3)CCO2)n1 (stereo not drawn) | -52.75%
- CCS(=O)(=O)c1ccccc1N1CCC(NC2CCCC2)CC1 | -42.53% & 0.647%
- CS(=O)(=O)CCN1CCC(Nc2c(Cl)cccc2C#N)CC1 | 15.59%
- CC(=O)NC1CCCN(c2ccc(C#N)cc2C(F)(F)F)C1 (stereo not drawn) | -6.405%
- c1ccc2oc(CCCN3CCc4cncnc4C3)nc2c1 | 3.373%
- CNC(=O)c1cnc(/C=C/c2cc(OC)c(OC)c(OC)c2)s1 | 21.36%
- CNC(=O)CCc1cc(C)nc(C2CCN(c3ccccc3)CC2)c1 | -8.899%
- CN(Cc1ccsc1)C(=O)c1cc(S(=O)(=O)N(C)C)ccc1Cl | 22%
- COCCO[C@H]1CCN(C(=O)c2ccoc2C)[C@H]1Cc1cnn(C)c1 | -27.76%
- CCc1oc(C(=O)N2CCCC(c3nnn[nH]3)C2)cc1C (stereo not drawn) | 0.4534%
- CCc1ccc(Cn2nccc2NC(=O)C2CCS(=O)(=O)C2)cc1 (stereo not drawn) | -9.168%
- COc1ccc(-c2cnc(CN3CCCC3CO)o2)cc1 (stereo not drawn) | 3.521% & 34.29%
- O=C(c1cccn1Cc1cccs1)N1CCN2CCCCC2C1 (stereo not drawn) | -5.78%
- CC(C)OCCC(=O)NCC(c1c(F)cccc1F)N(C)C (stereo not drawn) | -21.2%
- [H][C@]12CNC[C@@]1(C(=O)NCCSC(C)(C)C)CN(S(C)(=O)=O)C2 | 13.54%
- O=C(Nc1ccc(OCc2cccc(F)c2)c(F)c1)C1COCCO1 (stereo not drawn) | 11.36%
- O=C(NCc1cnc2n1CCN(c1ncc(F)cn1)CC2)C1CCC1 | 9.348%
- CN(C)C(=O)COCc1cncc2c1CCN(Cc1cnn(C)c1)C2.O=C(O)C(F)(F)F.O=C(O)C(F)(F)F | -1.425%
- O=C(Cc1ccc2c(c1)CCO2)N1CCN(c2cnccn2)CC1 | 3.012%
- O=C(O)CNC(=O)Cc1csc(-c2ccccc2F)n1 | -12.06%
- c1cc(NCc2ccsc2)cc(-c2nnc[nH]2)c1 | 15.31% & 11.22%
- NC(=O)NC(=O)CCSCc1cc(F)cc2cccnc12 | -8.955%
- CC(CCCC(C)(C)O)Nc1ccc(-c2nccn2C)nn1 (stereo not drawn) | -18.73%
- Cc1cnn(CC2CCCCN2CCn2cncn2)c1 (stereo not drawn) | -25.57%
- Cc1cnn(CC2CCCN2C(=O)CCc2c(C)nn(C)c2C)c1 (stereo not drawn) | 15.73%
- Cc1cc(C(=O)N2CCC(Nc3cccnc3)CC2)c(C)s1 | -16.86%
- COc1ccncc1NC(=O)c1[nH]nc(C(C)C)c1Br | -3.263%
- Cc1ccc(C(=O)N(C)CC(=O)N2CCCC2)c(C)c1 | 6.028% & -25.33%
- Cc1nccc(C(=O)NC(COCC(C)C)c2ccco2)n1 (stereo not drawn) | -26.64%
- CSCc1cccc(S(=O)(=O)N2CCCC2)c1 | -15.72%
- O=C(O)C(F)(F)F.[H][C@]12CCC[C@@]1(COc1ccccn1)CN(S(=O)(=O)C1CC1)C2 | 19.55%
- CN(CCC#N)C(=O)CN1CCCC1c1ccsc1 (stereo not drawn) | -15.84%
- CC(=O)Nc1ccc(SCC(O)COCc2ccccc2)cc1 (stereo not drawn) | 10.18% & -4.852%
- CC(CC(=O)NS(C)(=O)=O)C1CCCCC1 (stereo not drawn) | -2.555%
- Cc1cc(CN2CCC3(CC2)C(=O)NCCN3CC2CC2)oc1C | 1.859%
- CCOc1ccccc1C(CC(=O)O)NC(C)=O (stereo not drawn) | -1.788%
- CC(CNC(=O)c1ccc(Cl)cc1F)N1CCCC1 (stereo not drawn) | 0.256% & 10.16%
- CN(C)CCCNC(=O)c1cc(Br)c2c(c1)OCCO2 | 35.38%
- CC(C)Oc1cccc(C(=O)C2CCCN(C(=O)c3ncn[nH]3)C2)c1 (stereo not drawn) | -10.53%
- Cc1ccc(-c2noc(Cn3nc(C(N)=O)ccc3=O)n2)cc1 | -35.85%
- CN(C)CC(=O)N1CCc2sc(C(=O)N3CCOCC3)cc21 | 16.14%
- O=C(NCc1ccccn1)c1cncc(C2CCCN2)n1 (stereo not drawn) | -19.91%
- O=C(CCc1ccccc1)Nc1ncccc1OC(F)F | -15.59% & -4.122%
- CCCc1nc(CNC(=O)Cc2cc(C)no2)cs1 | 8.464%

Some entries from above, unchanged:

| SMILES | effect |
|---|---|
| `Cc1cnn(CC2CCCCN2CCn2cncn2)c1` (stereo not drawn) | -25.57 |
| `CC(C)OCCC(=O)NCC(c1c(F)cccc1F)N(C)C` (stereo not drawn) | -21.2 |
| `COc1ccc(-c2cnc(CN3CCCC3CO)o2)cc1` (stereo not drawn) | 3.521 & 34.29 |
| `CCc1oc(C(=O)N2CCCC(c3nnn[nH]3)C2)cc1C` (stereo not drawn) | 0.4534 |